# Reference: PubChem BioAssay AID504467 (National Center for Advancing Translational Sciences (NCATS), 2011)
# Hit rate of the full screen: of about 330,000 compounds, about 7,700 (2.3%) were called active. The shares of active, inactive and inconclusive entries below differ from those in the screen. Calls follow the shape of the dose curve; as a rule, active = well fitted inhibition curve with a large enough effect; inconclusive = small, poorly fitted or top-dose-only effect, or effect the other way; inactive = flat fitted curve, though single readings scatter. Potencies of inconclusive entries are doubtful fits and often do not repeat.
# Experiment: qHTS screen for small molecules that inhibit ELG1-dependent DNA repair in human embryonic kidney (HEK293T) cells expressing luciferase-tagged ELG1; also: nearly all actives have a fitted effect of over 55% in size
# Conditions: HEK293T ELG1-luciferase reporter, luminescence, 16 h, DNA damage induced by 5-fluorouridine; series mostly up to 46.1 µM
# Summary of the method: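 Luminescence from the luciferase reporter, measured 30 min after ONE-Glo reagent at room temperature, was the read-out. Beforehand, 2,000 cells per well were exposed for 16 hr at 37 °C to 5-fluorouridine together with compound or vehicle.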
# Potency is read from the fitted curve at half-maximal effect.
row,SMILES,Potency
1,Cc1c(Cl)cccc1NC(=O)CSc1ccc(-c2cccnc2)nn1,"inconclusive: 0.164 µM [activator, partial curve, poor fit]"
2,Cc1ccc(-c2ccc(/C=N/N3C(=O)C4C5C=CC(C6CC56)C4C3=O)o2)c([N+](=O)[O-])c1 (centres undefined),inactive
3,CCOC(=O)Nc1ccc(Oc2ccccc2)cc1,"inconclusive: 18.4 µM [activator, partial curve]"
4,O=C(CSc1ccc2ccccc2n1)c1ccc2c(c1)OCO2,"inconclusive: 20.6 µM [activator, partial curve]"
5,O=C(/C(N=Nc1cccc([N+](=O)[O-])c1)=C(/O)c1ccc(Br)cc1)C(F)(F)F,"inconclusive: 2.31 µM [inhibitor, partial curve, poor fit]"
6,Cc1cc(SCC(=O)N/N=C/c2ccccc2C(=O)O)c(C)cc1Br,inactive
7,Cc1ccc(-c2c3c([nH]c(=S)c2C#N)CCCC3)o1,inactive
8,Cc1c(C(=O)Nc2cccc3cccnc23)oc2ccccc12,"inconclusive: 18.4 µM [activator, partial curve, poor fit]"
9,CCC(C)(C)n1nnnc1CN(Cc1cc2cc(OC)ccc2[nH]c1=O)C1CCCC1,"inconclusive: 20.6 µM [inhibitor, partial curve]"
10,CCOC(=O)Nc1csnn1,"inconclusive: 18.3 µM [inhibitor, single point]"
11,COc1ccc(S(=O)(=O)NCc2cccnc2)cc1Br,"inconclusive: 4.11 µM [inhibitor, full curve]"
12,O=C(CN1CCN(c2ccccn2)CC1)Nc1ccc([N+](=O)[O-])cc1C(=O)Nc1ccccc1F,active: 11.6 µM
13,O=C(/C=C/c1ccc(Br)cc1)c1ccc(NC(=O)c2ccco2)cc1,"inconclusive: 16.4 µM [activator, single point]"
14,COc1ccc(-c2sc3cc4c(cc3c2C#CC2(N)CCCCC2)OCO4)cc1,inactive
15,COc1ccccc1N1CCN(S(=O)(=O)CCNC(=O)C2CCCCC2)CC1,"inconclusive: 0.146 µM [inhibitor, full curve, poor fit]"
16,C#CCOCCOCCOCCNc1nc(N2CCN(C(=O)Cn3cc(CCCCN)nn3)CC2)nc(N2CCN(C(=O)[C@H](CCCCN)n3cc(CCC(=O)O)nn3)CC2)n1,"inconclusive: 17.8 µM [activator, partial curve, poor fit]"
17,COc1cc([N+](=O)[O-])cc(/C=N/NC(=O)C(C)Nc2cccc3ccccc23)c1O (centres undefined),"inconclusive: 13 µM [inhibitor, partial curve, poor fit]"
18,CCN1C(=O)[C@H]2[C@H]3CN=C(SCc4ccc(Cl)cc4)N3[C@@](Cc3ccccc3)(C(=O)OC)[C@H]2C1=O,"inconclusive: 20.6 µM [inhibitor, single point]"
19,CCCCN(C(=O)c1ccc(NC(=O)C(C)C)cc1)c1ccccc1,inactive
20,O=C(CSc1nnc(-c2cccnc2)o1)Nc1ccccc1F,"inconclusive: 9.2 µM [activator, partial curve]"
21,Cc1nc(N2CCOCC2)c2oc3ccccc3c2n1,inactive
22,CCN(CC)S(=O)(=O)c1ccc(Cl)c(C(=O)Nc2cc(C)nn2-c2ccccc2)c1,"inconclusive: 20.6 µM [inhibitor, partial curve]"

# Structures shown so far containing a COOH group:
row,SMILES,Potency
6,Cc1cc(SCC(=O)N/N=C/c2ccccc2C(=O)O)c(C)cc1Br,inactive
16,C#CCOCCOCCOCCNc1nc(N2CCN(C(=O)Cn3cc(CCCCN)nn3)CC2)nc(N2CCN(C(=O)[C@H](CCCCN)n3cc(CCC(=O)O)nn3)CC2)n1,"inconclusive: 17.8 µM [activator, partial curve, poor fit]"

# More results:

row,SMILES,Potency
1,COc1ccc(/C=C(\C#N)C(=O)OCC(=O)Nc2ccc(-c3nc4ccc(C)cc4s3)cc2)cc1,"inconclusive: 1.46 µM [activator, full curve]"
2,COc1ccc(S(=O)(=O)N2CCN(C3CCN(Cc4ccccc4)CC3)CC2)cc1,inactive
3,O=S(=O)(NCCC1=CCCCC1)c1ccccc1Cl,inactive
4,Cc1cccc(OCC(=O)Nc2nc(-c3ccncc3)cs2)c1,"inconclusive: 8.91 µM [inhibitor, full curve, poor fit]"
5,c1ccc(N/N=C(\Cc2nc3ccccc3[nH]2)c2ccccc2)cc1,"inconclusive: 16.4 µM [activator, partial curve]"
6,Cc1cc(C)nc(SCCCNCc2ccc(Br)cc2)n1,"inconclusive: 18.3 µM [inhibitor, partial curve, poor fit]"
7,CCOc1cc(C(N)=O)cc(Br)c1OC,active: 5.17 µM
8,Cc1nc(N/N=C/c2ccc(Br)cc2)cc(N2CCOCC2)n1,active: 14.6 µM
9,COc1ccc2nc3c(cc2c1)c(NC(=O)c1cccs1)nn3CC(C)C,"inconclusive: 7.31 µM [inhibitor, partial curve]"
10,Cc1cccc(NC(=O)c2cc(S(=O)(=O)N(C)c3ccc(F)cc3)ccc2Cl)n1,"inconclusive: 3.16 µM [inhibitor, partial curve, poor fit]"
11,O=c1cc(CN2CCN(S(=O)(=O)c3ccc4c(c3)OCCO4)CC2)c2ccc(O)cc2o1,"inconclusive: 18.4 µM [inhibitor, single point]"
12,CC1(C)Cc2c(c(N3CCCC3)nc3sc4c(N5CCN(CCO)CC5)ncnc4c23)CO1,active: 8.2 µM
13,COCCNC(=S)NCCc1ccc(Cl)cc1Cl,inactive
14,N#C/C(=C\c1ccc[nH]1)C(=O)Nc1ccccc1F,"inconclusive: 14.6 µM [activator, partial curve]"
15,c1ccc(COc2nsnc2N2CCOCC2)cc1,"inconclusive: 20.6 µM [activator, partial curve, poor fit]"
16,COc1ccc(OC)c(S(=O)(=O)N2CCN(CC(O)COc3ccc(C#N)cc3)CC2)c1 (centres undefined),"inconclusive: 11.6 µM [inhibitor, partial curve]"
17,CCc1nnc(NC(=O)CSC(=S)N2CCOCC2)s1,inactive
18,COc1cccc(C(=S)N2CCCC2)c1OC,inactive
19,CSCCNC(=O)c1ccc(OC2CCN(S(=O)(=O)N(C)C)CC2)cc1,"inconclusive: 29.1 µM [inhibitor, single point]"
20,CCc1cc2cc(C)cc(C)c2[nH]c1=S,"inconclusive: 16.4 µM [activator, single point]"
21,COc1cccc(NC(=O)Cn2cc(C=O)c3ccccc32)c1,"inconclusive: 31.6 µM [inhibitor, single point]"
22,O=C(/C=C\Nc1ccc2c(c1)OCO2)c1ccc(Cl)s1,"inconclusive: 2.31 µM [activator, full curve]"
